Source: patent US6365722
These are yes or no findings as the source states them, for the method shown. Some results given as binding are weak or reduced against the parent protein; the word gives no strength.

Chains of the proteins cited; added tags and fusions are not shown. Lines headed by an entry give the natural chain unless they say otherwise; changes in a name come on top.
UniProt P04386: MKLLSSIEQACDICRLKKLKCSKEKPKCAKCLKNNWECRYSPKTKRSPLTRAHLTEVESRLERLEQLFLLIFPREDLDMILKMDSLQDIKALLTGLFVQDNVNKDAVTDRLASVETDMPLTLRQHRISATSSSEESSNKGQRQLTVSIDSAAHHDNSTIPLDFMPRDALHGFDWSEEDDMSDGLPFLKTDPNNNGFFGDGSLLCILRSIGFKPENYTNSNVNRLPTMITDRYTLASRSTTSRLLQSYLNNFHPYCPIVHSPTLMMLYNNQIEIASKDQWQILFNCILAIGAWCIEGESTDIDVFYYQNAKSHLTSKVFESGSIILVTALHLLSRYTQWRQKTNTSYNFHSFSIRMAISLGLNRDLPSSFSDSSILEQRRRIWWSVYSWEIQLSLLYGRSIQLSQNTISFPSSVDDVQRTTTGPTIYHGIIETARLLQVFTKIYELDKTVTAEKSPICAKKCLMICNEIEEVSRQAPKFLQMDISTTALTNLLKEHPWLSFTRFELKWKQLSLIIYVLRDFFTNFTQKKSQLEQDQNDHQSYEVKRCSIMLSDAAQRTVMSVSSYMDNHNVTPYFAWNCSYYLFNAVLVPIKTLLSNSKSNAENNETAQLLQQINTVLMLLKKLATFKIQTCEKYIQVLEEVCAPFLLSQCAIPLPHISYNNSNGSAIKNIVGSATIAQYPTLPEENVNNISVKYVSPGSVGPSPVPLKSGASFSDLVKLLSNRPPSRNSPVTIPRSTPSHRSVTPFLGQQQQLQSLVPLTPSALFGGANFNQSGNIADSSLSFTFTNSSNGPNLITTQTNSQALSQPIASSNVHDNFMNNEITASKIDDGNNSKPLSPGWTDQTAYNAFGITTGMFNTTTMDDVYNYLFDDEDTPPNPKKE
UniProt Q60680: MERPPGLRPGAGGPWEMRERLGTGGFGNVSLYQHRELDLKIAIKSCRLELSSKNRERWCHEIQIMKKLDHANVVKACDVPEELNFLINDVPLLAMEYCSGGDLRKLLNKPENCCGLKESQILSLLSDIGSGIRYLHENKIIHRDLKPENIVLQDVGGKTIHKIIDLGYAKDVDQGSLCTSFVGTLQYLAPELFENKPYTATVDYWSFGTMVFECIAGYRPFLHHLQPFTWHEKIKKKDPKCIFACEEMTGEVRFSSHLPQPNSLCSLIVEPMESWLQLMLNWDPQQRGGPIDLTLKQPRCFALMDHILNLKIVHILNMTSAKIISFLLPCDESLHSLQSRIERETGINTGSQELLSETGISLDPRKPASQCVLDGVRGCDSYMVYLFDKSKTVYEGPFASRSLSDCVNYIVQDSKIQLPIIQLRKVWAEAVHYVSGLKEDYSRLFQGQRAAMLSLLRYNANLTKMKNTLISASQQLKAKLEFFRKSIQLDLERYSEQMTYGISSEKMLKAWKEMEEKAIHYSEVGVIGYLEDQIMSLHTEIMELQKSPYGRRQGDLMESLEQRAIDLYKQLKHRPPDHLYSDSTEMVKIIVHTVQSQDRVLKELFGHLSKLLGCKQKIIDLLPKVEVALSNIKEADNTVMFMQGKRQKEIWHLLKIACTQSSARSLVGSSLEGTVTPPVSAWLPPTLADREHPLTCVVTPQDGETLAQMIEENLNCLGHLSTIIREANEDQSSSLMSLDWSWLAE

Experiments:
[1] = biological target: T1, IKKα bait: 937 bp SnaBI/XhoI fragment of the murine IKKα clone encoding the protein's leucine zipper, helix-loop-helix and carboxyl terminus, in the pGTB9c bait vector (murine) (UniProt P04386+Q60680); assay: yeast two-hybrid, relative interaction strength by colony growth rate
[2] = biological target: T1, IKKα bait: 937 bp SnaBI/XhoI fragment of the murine IKKα clone encoding the protein's leucine zipper, helix-loop-helix and carboxyl terminus, in the pGTB9c bait vector (murine); assay: yeast two-hybrid
[3] = biological target: T1, IKKα bait: 937 bp SnaBI/XhoI fragment of the murine IKKα clone encoding the protein's leucine zipper, helix-loop-helix and carboxyl terminus, in the pGTB9c bait vector (murine); assay: yeast two-hybrid, colony growth

| Binder | binding [1] | binding [2] | binding [3] |
| --- | --- | --- | --- |
| Y2h clone 11, RanBP5 (protein, human, UniProt O00410 2-1097, looked up) AAAAAEQQQFYLLLGNLLSPDNVVRKQAEETYENIPGQSKITFLLQAIRNTTAAEEARQMAAVLLRRLLSSAFDEVYPALPSDVQTAIKSELLMIIQMETQSSMRKKVCDIAAELARNLIDEDGNNQWPEGLKFLFDSVSSQNVGLREAALHIFWNFPGIFGNQQQHYLDVIKRMLVQCMQDQEHPSIRTLSARATAAFILANEHNVALFKHFADLLPGFLQAVNDSCYQNDDSVLKSLVEIADTVPKYLRPHLEATLQLSLKLCGDTSLNNMQRQLALEVIVTLSETAAAMLRKHTNIVAQTIPQMLAMMVDLEEDEDWANADELEDDDFDSNAVAGESALDRMACGLGGKLVLPMIKEHIMQMLQNPDWKYRHAGLMALSAIGEGCHQQMEGILNEIVNFVLLFLQDPHPRVRYAACNAVGQMATDFAPGFQKKFHEKVIAALLQTMEDQGNQRVQAHAAAALINFTEDCPKSLLIPYLDNLVKHLHSIMVLKLQELIQKGTKLVLEQVVTSIASVADTAEEKFVPYYDLFMPSLKHIVENAVQKELRLLRGKTIECISLIGLAVGKEKFMQDASDVMQLLLKTQTDFNDMEDDDPQISYMISAWARMCKILGKEFQQYLPVVMGPLMKTASIKPEVALLDTQDMENMSDDDGWEFVNLGDQQSFGIKTAGLEEKSTACQMLVCYAKELKEGFVEYTEQVVKLMVPLLKFYFHDGVRVAAAESMPLLLECARVRGPEYLTQMWHFMCDALIKAIGTEPDSDVLSEIMHSFAKCIEVMGDGCLNNEHFEELGGILKAKLEEHFKNQELRQVKRQDEDYDEQVEESLQDEDDNDVYILTKVSDILHSIFSSYKEKVLPWFEQLLPLIVNLICPHRPWPDRQWGLCIFDDVIEHCSPASFKYAEYFLRPMLQYVCDNSPEVRQAAAYGLGVMAQYGGDNYRPFCTEALPLLVRVIQSADSKTKENVNATENCISAVGKIMKFKPDCVNVEEVLPHWLSWLPLHEDKEEAVQTFNYLCDLIESNHPIVLGPNNTNLPKIFSIIAEGEMHEAIKHEDPCAKRLANVVRQVQTSGGLWTECIAQLSPEQQAAIQELLNSA | binds | – | – |
| Y2H14, IKK binding protein (protein) CGLPLKEGALRPSYDRKSDRPVYEGPSMFGGERRTYPEERMPLPAPSLSHQPPPAPRVEKKPESKNVDDILKPPGRESRPERIVVIMRGLPGSGKTHVAKLIRDKEVEFGGPAPRVLSLDDYFITEVEKEEKDPDSGKKVKKKVREYEYEAEMEETYRTSMFKTFKKTLDDGFFPFIILDAINDRVRHFDQFWSAAKTKGFEVYLAEMSADNQTCGKRNIHGRKLKEINKMADHWETAPRHMMRLDIRSLLQDAAIEEVEMEDFDANIEEQKEEKKDAEEEESELGYIPKSKWEMDTSEAKLDKLDGLRTGTKRKRDWEAIASRMEDYLQLPDDYDTRASEPGKKRVRWADLEEKKDADRKRAIGFVVGQTDWEKITDESGHLAEKALNRTKYI | binds | binds | binds |
| Y2h clone 21, TRIP9/HuIκBβ2 (protein, human, UniProt Q15653-2 1-338, looked up) MAGVACLGKAADADEWCDSGLGSLGPDAAAPGGPGLGAELGPGLSWAPLVFGYVTEDGDTALHLAVIHQHEPFLDFLLGFSAGTEYMDLQNDLGQTALHLAAILGETSTVEKLYAAGAGLCVAERRGHTALHLACRVGAHACARALLQPRPRRPREAPDTYLAQGPDRTPDTNHTPVALYPDSDLEKEEEESEEDWKLQLEAENYEGHTPLHVAVIHKDVEMVRLLRDAGADLDKPEPTCGRSPLHLAVEAQAADVLELLLRAGANPAARMYGGRTPLGSAMLRPNPILARLLRAHGAPEPEGEDEKSGPCSSSSDSDSGDEGVSQEERQGSPAGGSG | binds | – | binds |
